No constants are given. Whether binding was seen depends on the method and setting. In cells and extracts the contact can be indirect. Some binding calls cover weakened binding; strength is not graded here. For some of these results: Sequences can lack the tags named with a protein.
What was measured:
Test in all cases: co-IP; 12xMyc-Met30 variants immunoprecipitated on MYC-trap beads from 1 mg native yeast whole cell lysate (Triton X-100 buffer: 50 mM HEPES pH 7.5, 0.2% Triton X-100, 200 mM NaCl), overnight at 4 °C; co-precipitated Skp1 by western blot; cells untreated or treated with 100 µM CdCl2 (time courses); also H2O2 or zinc pre-treatment
[1] = target: T1, 12xMyc-Met30^1-253 (S. cerevisiae) (UniProt P39014)
T1 sequence: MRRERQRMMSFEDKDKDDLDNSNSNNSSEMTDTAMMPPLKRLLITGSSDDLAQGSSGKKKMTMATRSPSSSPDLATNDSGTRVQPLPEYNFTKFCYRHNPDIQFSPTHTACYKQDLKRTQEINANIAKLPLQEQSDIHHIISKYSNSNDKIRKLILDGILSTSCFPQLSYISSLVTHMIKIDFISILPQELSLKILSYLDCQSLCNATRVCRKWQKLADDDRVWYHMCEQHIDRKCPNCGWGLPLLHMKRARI

Chains of the proteins cited; added tags and fusions are not shown.
UniProt P52286: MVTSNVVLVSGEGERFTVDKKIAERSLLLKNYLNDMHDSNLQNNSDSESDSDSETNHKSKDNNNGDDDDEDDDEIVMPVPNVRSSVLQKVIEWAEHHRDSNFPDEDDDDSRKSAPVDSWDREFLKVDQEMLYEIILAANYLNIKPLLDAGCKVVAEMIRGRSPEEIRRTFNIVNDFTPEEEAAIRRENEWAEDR

[2] = target: T2, 12xMyc-Met30 ∆95–99 (S. cerevisiae) (UniProt P39014)
T2 sequence: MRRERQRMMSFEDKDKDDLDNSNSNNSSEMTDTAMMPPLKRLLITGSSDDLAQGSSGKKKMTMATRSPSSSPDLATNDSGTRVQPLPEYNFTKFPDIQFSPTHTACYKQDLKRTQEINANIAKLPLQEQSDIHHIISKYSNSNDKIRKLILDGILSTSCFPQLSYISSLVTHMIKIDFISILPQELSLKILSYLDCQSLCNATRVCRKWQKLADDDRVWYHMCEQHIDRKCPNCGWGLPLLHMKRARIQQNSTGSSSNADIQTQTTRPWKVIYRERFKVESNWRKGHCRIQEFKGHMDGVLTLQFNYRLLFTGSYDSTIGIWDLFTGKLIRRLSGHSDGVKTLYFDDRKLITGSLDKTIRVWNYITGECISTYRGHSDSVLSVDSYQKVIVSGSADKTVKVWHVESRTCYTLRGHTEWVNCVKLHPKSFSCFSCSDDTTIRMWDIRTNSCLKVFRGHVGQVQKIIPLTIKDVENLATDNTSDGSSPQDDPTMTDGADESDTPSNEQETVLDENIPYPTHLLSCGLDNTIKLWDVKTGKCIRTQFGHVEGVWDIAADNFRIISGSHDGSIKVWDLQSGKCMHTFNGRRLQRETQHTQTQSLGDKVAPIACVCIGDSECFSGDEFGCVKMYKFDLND

[3] = target: T3, 12xMyc-Met30 ∆236–239 (S. cerevisiae) (UniProt P39014)
T3 sequence: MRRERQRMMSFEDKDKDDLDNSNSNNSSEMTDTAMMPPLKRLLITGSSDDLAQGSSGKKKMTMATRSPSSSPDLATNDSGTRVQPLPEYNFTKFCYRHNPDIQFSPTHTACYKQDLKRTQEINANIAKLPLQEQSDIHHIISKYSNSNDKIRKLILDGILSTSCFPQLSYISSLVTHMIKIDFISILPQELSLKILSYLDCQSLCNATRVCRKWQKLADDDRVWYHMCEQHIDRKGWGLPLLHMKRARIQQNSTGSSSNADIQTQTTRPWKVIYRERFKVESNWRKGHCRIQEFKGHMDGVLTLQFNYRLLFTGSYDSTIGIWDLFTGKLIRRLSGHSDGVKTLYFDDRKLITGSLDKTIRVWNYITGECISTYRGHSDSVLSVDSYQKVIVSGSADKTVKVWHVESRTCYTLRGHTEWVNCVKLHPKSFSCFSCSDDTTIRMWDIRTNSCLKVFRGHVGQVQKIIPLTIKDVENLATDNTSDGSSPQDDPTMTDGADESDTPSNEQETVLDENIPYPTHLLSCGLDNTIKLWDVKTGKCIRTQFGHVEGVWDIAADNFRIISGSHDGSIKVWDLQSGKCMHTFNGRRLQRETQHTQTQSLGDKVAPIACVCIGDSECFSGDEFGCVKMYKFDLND

[4] = target: T4, Met30 H226R (S. cerevisiae) (UniProt P39014)
T4 sequence: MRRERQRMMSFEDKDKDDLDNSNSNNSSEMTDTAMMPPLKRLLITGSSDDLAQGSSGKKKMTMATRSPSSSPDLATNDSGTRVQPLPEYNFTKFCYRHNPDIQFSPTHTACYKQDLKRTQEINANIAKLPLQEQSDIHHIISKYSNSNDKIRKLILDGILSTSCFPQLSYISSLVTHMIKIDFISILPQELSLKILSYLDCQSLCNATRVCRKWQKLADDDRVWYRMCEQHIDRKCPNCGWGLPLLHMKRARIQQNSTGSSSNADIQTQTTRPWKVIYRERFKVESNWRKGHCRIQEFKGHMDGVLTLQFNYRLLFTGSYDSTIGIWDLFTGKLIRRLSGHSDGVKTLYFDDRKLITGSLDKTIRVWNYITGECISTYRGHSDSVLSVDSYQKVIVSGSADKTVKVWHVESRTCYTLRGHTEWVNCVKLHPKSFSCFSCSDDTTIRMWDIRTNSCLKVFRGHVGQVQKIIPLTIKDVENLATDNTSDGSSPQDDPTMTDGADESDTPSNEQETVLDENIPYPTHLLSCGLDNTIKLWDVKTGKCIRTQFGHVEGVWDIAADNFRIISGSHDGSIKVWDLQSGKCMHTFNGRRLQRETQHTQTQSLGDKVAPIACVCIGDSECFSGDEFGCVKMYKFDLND

Measured: binding

Skp1 (from UniProt P52286 1-194)
binds: all assays above
